The other results are listed elsewhere or left out.
What was measured:
Experiment in all cases: log2 fold change, soluble protein after heating vs DMSO (PISA); higher = thermal stabilisation; K562 lysate, 10 uM; active = over 0.2 and 3.5 SD of the protein, either way, in both replicates (recomputed)
ibrutinib = compound: C=CC(=O)N1CCC[C@@H](n2nc(-c3ccc(Oc4ccccc4)cc3)c3c(N)ncnc32)C1 [ibrutinib]
Method in brief: (§1)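 Dounce homogenisation of K562 pellets in PBS pH 7.4 with 1 mM MgCl2 produced a crude extract, used at 1 mg/mL protein. Exposure to 10 μM compound lasted 30 min, and aliquots were then heated for 3 min across 48°C-58°C, pooled and brought to 0.5% NP-40 at 4°C. The supernatant after 21,000xg for 90 min was quantified by TMTpro 16plex LC-MS/MS with channel sums equalised. Duplicate values are given as log-two fold change in thermal stability relative to solvent controls.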

The chains behind the UniProt entries cited, without tags or fusion partners. Where a name states a change or a piece, a line headed by the entry shows the natural chain unless it says otherwise.
UniProt Q969R2: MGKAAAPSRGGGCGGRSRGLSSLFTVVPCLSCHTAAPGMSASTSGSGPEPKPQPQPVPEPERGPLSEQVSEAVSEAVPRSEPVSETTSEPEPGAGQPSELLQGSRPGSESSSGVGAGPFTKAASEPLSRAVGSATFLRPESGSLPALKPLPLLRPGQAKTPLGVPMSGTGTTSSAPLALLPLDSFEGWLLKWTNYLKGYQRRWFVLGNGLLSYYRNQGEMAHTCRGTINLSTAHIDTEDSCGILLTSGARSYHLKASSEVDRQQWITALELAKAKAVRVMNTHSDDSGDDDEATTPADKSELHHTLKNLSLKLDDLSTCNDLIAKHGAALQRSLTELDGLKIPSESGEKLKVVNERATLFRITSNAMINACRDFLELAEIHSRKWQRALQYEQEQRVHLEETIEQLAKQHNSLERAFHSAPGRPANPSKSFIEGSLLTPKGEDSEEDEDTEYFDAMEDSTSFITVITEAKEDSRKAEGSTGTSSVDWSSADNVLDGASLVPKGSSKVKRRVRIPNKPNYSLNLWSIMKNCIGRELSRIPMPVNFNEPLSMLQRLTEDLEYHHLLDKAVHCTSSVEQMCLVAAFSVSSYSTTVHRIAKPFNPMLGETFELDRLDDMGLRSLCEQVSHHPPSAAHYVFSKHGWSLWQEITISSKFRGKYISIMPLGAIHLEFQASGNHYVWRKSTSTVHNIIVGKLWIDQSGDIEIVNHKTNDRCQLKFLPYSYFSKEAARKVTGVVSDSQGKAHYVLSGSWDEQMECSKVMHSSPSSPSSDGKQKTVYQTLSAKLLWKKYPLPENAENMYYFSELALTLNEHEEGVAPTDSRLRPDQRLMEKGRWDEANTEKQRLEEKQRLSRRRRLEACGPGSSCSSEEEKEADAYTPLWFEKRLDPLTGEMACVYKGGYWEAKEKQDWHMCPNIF
UniProt Q99571: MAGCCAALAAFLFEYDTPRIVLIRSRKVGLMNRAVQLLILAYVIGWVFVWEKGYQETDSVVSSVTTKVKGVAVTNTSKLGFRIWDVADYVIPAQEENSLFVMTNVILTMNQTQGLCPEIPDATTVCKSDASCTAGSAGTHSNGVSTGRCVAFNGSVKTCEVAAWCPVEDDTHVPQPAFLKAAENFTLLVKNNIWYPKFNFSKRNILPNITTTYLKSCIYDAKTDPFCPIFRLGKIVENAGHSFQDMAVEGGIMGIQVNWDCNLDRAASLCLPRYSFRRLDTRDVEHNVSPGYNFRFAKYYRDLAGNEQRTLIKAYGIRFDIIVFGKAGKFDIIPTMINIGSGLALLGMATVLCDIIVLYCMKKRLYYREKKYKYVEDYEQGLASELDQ
UniProt O60829: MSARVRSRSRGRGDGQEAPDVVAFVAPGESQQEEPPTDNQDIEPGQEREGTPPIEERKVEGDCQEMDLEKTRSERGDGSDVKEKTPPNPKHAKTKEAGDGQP
UniProt Q8NFH5: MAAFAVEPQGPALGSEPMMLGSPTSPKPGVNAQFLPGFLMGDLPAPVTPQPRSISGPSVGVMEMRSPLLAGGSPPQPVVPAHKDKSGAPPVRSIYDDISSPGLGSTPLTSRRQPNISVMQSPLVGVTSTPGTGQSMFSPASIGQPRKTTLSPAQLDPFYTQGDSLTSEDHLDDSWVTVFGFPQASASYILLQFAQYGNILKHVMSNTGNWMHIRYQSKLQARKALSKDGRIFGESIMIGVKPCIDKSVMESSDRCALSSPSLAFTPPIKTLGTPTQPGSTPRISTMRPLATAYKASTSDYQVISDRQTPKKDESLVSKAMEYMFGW
UniProt Q9BY11: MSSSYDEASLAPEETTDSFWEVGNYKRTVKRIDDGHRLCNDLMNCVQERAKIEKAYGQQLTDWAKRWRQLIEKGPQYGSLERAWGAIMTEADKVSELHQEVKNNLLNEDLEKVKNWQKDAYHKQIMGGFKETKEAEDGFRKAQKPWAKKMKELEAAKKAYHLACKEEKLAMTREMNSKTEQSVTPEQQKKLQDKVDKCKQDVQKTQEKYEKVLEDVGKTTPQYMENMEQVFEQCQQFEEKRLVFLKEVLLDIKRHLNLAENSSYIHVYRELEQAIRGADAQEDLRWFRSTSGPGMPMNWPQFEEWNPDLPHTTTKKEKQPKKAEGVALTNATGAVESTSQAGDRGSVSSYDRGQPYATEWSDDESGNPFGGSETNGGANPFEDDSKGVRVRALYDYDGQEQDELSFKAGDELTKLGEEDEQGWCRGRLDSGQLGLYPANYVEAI
UniProt Q9H6K4: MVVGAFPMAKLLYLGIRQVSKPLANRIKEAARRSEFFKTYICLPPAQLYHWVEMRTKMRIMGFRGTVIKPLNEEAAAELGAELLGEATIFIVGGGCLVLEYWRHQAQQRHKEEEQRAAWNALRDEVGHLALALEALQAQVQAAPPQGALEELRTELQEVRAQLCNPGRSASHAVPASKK
UniProt Q9Y6K5: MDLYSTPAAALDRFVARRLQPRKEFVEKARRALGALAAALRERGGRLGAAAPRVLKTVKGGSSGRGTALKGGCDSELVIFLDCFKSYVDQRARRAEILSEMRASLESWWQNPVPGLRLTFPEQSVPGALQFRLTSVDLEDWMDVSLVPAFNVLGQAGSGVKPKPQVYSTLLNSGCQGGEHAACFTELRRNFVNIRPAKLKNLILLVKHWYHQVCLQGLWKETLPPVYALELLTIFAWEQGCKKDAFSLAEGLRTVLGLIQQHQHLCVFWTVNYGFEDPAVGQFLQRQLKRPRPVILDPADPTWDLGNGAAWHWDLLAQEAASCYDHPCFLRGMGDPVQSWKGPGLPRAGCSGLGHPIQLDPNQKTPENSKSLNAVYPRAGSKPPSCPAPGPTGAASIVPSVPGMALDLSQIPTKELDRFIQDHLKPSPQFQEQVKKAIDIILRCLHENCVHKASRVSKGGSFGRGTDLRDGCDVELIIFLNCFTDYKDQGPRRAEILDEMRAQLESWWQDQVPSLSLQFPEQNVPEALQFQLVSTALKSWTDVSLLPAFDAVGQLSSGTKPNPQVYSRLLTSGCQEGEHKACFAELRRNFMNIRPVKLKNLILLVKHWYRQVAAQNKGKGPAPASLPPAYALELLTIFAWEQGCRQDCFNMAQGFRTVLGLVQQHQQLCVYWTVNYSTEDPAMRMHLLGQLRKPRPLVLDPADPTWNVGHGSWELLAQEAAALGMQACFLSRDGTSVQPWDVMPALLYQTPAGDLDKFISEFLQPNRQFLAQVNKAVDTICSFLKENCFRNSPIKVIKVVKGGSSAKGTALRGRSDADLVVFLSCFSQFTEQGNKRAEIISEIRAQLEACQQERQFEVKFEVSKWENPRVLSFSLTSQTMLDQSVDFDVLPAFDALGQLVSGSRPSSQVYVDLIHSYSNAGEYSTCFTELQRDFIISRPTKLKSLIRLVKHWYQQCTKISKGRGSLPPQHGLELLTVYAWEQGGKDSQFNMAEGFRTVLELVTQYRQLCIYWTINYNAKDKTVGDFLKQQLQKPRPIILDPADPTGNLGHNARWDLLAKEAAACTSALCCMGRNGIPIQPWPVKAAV
UniProt Q9NPJ8: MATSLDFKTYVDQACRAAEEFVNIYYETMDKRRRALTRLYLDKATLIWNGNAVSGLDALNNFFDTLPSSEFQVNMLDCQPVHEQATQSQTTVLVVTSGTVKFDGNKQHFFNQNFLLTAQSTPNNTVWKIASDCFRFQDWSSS
UniProt Q58A45: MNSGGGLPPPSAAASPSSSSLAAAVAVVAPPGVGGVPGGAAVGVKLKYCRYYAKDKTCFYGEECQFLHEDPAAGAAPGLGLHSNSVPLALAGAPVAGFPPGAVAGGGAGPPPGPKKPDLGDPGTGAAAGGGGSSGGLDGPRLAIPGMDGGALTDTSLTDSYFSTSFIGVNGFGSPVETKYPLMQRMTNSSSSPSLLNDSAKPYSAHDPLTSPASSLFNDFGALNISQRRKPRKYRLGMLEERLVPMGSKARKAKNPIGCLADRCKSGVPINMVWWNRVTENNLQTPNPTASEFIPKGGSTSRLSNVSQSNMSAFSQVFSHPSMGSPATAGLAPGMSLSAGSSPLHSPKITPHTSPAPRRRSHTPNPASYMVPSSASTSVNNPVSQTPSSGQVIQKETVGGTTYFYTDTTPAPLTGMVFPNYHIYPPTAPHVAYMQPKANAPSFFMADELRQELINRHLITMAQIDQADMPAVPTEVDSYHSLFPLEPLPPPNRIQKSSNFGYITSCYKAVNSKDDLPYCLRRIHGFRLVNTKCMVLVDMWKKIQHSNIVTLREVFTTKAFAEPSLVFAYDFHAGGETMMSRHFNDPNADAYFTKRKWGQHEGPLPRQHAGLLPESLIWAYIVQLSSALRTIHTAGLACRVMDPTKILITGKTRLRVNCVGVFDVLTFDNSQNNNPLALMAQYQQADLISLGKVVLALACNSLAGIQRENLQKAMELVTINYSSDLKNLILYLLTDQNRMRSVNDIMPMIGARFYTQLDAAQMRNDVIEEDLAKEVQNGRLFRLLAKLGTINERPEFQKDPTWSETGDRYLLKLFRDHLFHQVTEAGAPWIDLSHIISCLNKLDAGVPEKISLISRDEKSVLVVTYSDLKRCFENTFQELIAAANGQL
UniProt Q13438: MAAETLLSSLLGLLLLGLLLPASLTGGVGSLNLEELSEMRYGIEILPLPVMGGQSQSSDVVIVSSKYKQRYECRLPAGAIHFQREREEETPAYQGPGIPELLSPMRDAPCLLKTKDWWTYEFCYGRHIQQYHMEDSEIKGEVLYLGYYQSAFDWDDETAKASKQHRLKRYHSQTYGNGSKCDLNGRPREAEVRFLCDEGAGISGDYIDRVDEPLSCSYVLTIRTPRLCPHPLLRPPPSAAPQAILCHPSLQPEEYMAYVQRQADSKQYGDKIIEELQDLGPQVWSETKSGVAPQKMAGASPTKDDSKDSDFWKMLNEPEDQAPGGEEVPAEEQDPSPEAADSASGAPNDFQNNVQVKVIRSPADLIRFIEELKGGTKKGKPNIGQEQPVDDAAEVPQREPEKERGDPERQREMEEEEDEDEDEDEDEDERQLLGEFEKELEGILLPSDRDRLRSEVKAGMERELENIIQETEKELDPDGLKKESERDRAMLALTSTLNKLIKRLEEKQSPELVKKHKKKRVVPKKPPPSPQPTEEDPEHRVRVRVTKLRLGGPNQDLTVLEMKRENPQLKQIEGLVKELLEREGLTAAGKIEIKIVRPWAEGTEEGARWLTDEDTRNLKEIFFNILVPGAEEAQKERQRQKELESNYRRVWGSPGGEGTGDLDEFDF
UniProt Q5BJF6: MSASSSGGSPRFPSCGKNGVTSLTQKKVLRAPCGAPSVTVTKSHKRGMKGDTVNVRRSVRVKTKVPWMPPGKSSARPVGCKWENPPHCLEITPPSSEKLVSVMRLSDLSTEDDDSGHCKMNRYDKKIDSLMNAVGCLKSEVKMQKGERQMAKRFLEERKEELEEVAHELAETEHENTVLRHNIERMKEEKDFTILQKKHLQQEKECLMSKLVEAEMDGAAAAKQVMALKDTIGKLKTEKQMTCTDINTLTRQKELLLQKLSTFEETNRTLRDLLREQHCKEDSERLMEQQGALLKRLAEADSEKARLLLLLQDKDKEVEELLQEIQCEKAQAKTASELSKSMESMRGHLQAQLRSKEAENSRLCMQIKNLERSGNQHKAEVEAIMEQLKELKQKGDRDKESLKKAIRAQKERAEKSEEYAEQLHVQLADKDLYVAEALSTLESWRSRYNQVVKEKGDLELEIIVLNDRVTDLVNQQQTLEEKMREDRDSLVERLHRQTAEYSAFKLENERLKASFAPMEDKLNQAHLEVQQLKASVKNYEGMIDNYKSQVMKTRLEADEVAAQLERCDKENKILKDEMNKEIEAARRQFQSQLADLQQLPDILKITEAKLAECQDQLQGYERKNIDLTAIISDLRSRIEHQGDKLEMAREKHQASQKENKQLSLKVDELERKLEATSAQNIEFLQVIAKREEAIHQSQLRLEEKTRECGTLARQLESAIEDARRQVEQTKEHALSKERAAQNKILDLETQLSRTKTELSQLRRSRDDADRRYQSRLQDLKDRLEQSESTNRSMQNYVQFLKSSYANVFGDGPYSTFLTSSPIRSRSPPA
UniProt P13674: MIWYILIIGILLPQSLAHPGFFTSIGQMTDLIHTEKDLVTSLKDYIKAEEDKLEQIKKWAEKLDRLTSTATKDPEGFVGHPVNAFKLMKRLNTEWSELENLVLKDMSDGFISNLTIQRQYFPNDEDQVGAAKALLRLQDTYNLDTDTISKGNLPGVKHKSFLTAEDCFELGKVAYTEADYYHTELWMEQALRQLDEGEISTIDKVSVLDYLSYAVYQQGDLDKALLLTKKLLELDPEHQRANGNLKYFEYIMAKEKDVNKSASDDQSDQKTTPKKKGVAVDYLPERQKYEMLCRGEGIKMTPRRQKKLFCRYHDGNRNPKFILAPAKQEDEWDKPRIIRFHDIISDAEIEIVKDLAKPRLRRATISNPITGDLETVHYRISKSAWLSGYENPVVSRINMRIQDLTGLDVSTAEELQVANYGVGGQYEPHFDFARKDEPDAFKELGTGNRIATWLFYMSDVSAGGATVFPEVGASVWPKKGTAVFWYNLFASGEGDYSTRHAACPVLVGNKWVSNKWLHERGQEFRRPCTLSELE

[1] = compound: CC(=O)c1cnc2ccc(-c3cc(Cl)c(O)c(Cl)c3)nc2c1N[C@H]1CC[C@H](CN(C)C)CC1
Method in brief: as §1

[2] = compound: CC(C)C1=C2N=C(C=C(N2N=C1)NCC3=CC=CC=C3)NCCCCCCN
Method in brief: as §1

[3] = compound: CC1=C(C(CC(=O)N1)C2=CC=C(C=C2)C(F)(F)F)C(=O)NC3=C(C=C4C(=C3)C=NN4)F
Method in brief: as §1

[4] = compound: CC1=C(C2=C(C=C1)C(=O)C3=CC=CC=C3N2CCCN)C
Method in brief: as §1

[5] = compound: CC1=C(C=C(C=C1)NC(=O)C2=CC(=CC=C2)C(C)(C)C#N)NC3=CC4=C(C=C3)N=CN(C4=O)C
Method in brief: as §1

[6] = compound: CC1=CC=C(C=C1)SC2=C3C=C(SC3=CN=C2)C(=O)N
Method in brief: as §1

ralimetinib = compound: CC(C)(C)Cn1c(N)nc2ccc(-c3[nH]c(C(C)(C)C)nc3-c3ccc(F)cc3)nc21 [ralimetinib]
Method in brief: as §1

[7] = compound: CC(C)(O)CC(=O)NCCn1ccc2ncnc(Nc3ccc(Oc4cccc(C(F)(F)F)c4)c(Cl)c3)c21
Method in brief: as §1

[8] = compound: CC1=C(C=C(C=C1)NC(=O)C2=CC(=CC=C2)N(C)C)NC(=O)C3=CC=C(C=C3)O
Method in brief: as §1

Measured: log2 fold change

OSBPL1A (UniProt Q9BXW6)
inactive: ibrutinib 0.019 | [1] -0.002 | [2] 0.116 | [3] 0.152 | [4] -0.069 | [5] 0.012 | [6] -0.028

OSBP2 (UniProt Q969R2)
inactive: ibrutinib 0 | [1] 0.077 | ralimetinib 0.036 | [7] -0.103 | [2] -0.223 | [3] -0.006 | [4] 0.023 | [5] 0.051 | [8] -0.011 | [6] 0

PAAF1 (UniProt Q9BRP4)
inactive: ibrutinib 0.014 | [1] 0.001 | ralimetinib 0.004 | [7] -0.007 | [2] -0.037 | [3] 0.014 | [4] 0.018 | [5] 0.041 | [8] -0.019 | [6] 0

OXA1L (UniProt Q15070)
inactive: ibrutinib 0 | [1] 0.034 | ralimetinib -0.006 | [7] -0.05 | [2] -0.084 | [3] 0.039 | [4] 0.004 | [5] 0.024 | [8] 0.007 | [6] 0.059

P2RX4 isoform 2 (UniProt Q99571)
inactive: ibrutinib 0.027 | [1] 0.021 | ralimetinib -0.053 | [7] -0.102 | [2] -0.094 | [4] -0.006 | [5] 0.03 | [8] -0.001 | [6] -0.151

PABPC1 (UniProt H0YAR2)
inactive: ibrutinib -0.207 | [1] -0.09 | ralimetinib 0.049 | [7] -0.044 | [2] -0.02 | [3] -0.037 | [5] 0.048 | [8] 0.027 | [6] -0.009

PALM (UniProt O75781)
inactive: ibrutinib 0.054 | [1] 0 | [2] -0.031 | [3] 0.011 | [4] -0.062 | [5] -0.037 | [6] 0.07

PAGE4 (UniProt O60829)
inactive: ibrutinib 0.056 | [1] -0.029 | ralimetinib 0.028 | [7] -0.077 | [2] 0.072 | [4] -0.014 | [5] 0.04 | [8] 0.078 | [6] 0.004

NUP214 isoform 4 (UniProt P35658)
inactive: ibrutinib -0.022 | [1] 0.053 | ralimetinib 0.292 | [7] 0.137 | [2] -0.333 | [3] 0.18 | [8] -0.322 | [6] -0.006

OSTF1 (UniProt Q92882)
inactive: ibrutinib -0.001 | [1] 0.023 | ralimetinib -0.007 | [7] -0.024 | [2] -0.006 | [3] -0.019 | [4] -0.014 | [5] 0.046 | [8] -0.001 | [6] 0

PANK2 (UniProt Q9BZ23)
inactive: ibrutinib -0.056 | [1] 0.001 | ralimetinib -0.069 | [7] -0.047 | [3] -0.073 | [4] -0.126 | [5] -0.046 | [8] -0.002 | [6] 0.023

NUP35 (UniProt Q8NFH5)
inactive: ibrutinib -0.021 | [1] -0.049 | ralimetinib 0.046 | [7] -0.174 | [3] -0.038 | [5] -0.005 | [8] 0.1 | [6] 0.139

2 records picked at random from the list so far:
OSTF1 (UniProt Q92882)
inactive: ibrutinib -0.001 | [1] 0.023 | ralimetinib -0.007 | [7] -0.024 | [2] -0.006 | [3] -0.019 | [4] -0.014 | [5] 0.046 | [8] -0.001 | [6] 0

PANK2 (UniProt Q9BZ23)
inactive: ibrutinib -0.056 | [1] 0.001 | ralimetinib -0.069 | [7] -0.047 | [3] -0.073 | [4] -0.126 | [5] -0.046 | [8] -0.002 | [6] 0.023

More results follow:

PACSIN1 (UniProt Q9BY11)
inactive: ibrutinib -0.038 | [1] -0.011 | ralimetinib 0.034 | [7] -0.009 | [2] 0.054 | [3] 0.115 | [4] -0.058 | [8] 0.051 | [6] -0.028

PACS2 isoform 2 (UniProt Q86VP3)
inactive: ralimetinib 0.016 | [7] 0.011 | [2] -0.05 | [5] -0.112 | [8] 0.019

OPA3 isoform 2 (UniProt Q9H6K4)
inactive: [4] 0.15 | [5] -0.088

PAGE2B (UniProt Q5JRK9)
inactive: [1] -0.049 | ralimetinib -0.024 | [7] -0.032 | [2] -0.054 | [3] 0.023 | [4] 0.044 | [5] -0.003 | [8] 0.238 | [6] 0.022

ORC3 (UniProt Q9UBD5)
inactive: [1] 0.161 | [3] -0.007 | [6] 0.03

PAQR4 (UniProt Q8N4S7)
inactive: [2] 0.017

OXR1 isoform 2 (UniProt Q8N573)
inactive: ralimetinib -0.053 | [7] -0.115 | [8] 0.04

OAS3 (UniProt Q9Y6K5)
inactive: [1] 0.045 | ralimetinib 0.043 | [7] 0.054 | [2] 0.045 | [3] 0.204 | [5] -0.108 | [8] 0.037 | [6] 0.033

OCIAD1 (UniProt D6RDK6)
inactive: [1] 0.007 | [3] -0.106 | [6] -0.031

ORMDL3 (UniProt Q8N138)
inactive: [1] 0.072 | [4] -0.164 | [5] 0.033 | [6] 0.134

NXT2 isoform 3 (UniProt Q9NPJ8)
inactive: [1] 0.023 | [6] -0.038

PAPOLG (UniProt Q9BWT3)
inactive: ralimetinib 0.01 | [7] -0.071 | [2] -0.19 | [3] -0.089 | [4] 0.012 | [5] -0.028 | [8] -0.092

ORC6 (UniProt Q9Y5N6)
inactive: ibrutinib 0.01 | ralimetinib 0.034 | [7] 0.079 | [2] 0.003 | [3] 0.029 | [4] 0.001 | [5] 0.01 | [8] -0.005

P4HB (UniProt I3L0S0)
inactive: [1] 0.204 | [6] -0.132

OSBPL9 (UniProt E9PLH0)
inactive: ibrutinib -0.087 | [2] 0.126

PAN3 (UniProt Q58A45)
inactive: [3] 0.064 | [5] 0.093

PAQR7 (UniProt Q86WK9)
inactive: [2] -0.03

OS9 isoform 7 (UniProt Q13438)
inactive: [2] -0.028

PACRGL (UniProt Q8N7B6)
inactive: [4] 0.103 | [5] 0.211

ORMDL1 (UniProt Q9P0S3)
inactive: ibrutinib 0.003 | ralimetinib 0.092 | [7] -0.017 | [2] -0.056 | [3] 0.02 | [4] 0.222 | [5] 0.086 | [8] 0.09

PARD3B (UniProt Q8TEW8)
inactive: [2] 0.091 | [4] 0.071

OBSCN isoform 6 (UniProt Q5VST9)
inactive: [1] 0.06 | [2] -0.068 | [6] 0.142

OXLD1 (UniProt Q5BKU9)
inactive: [1] -0.066 | ralimetinib -0.105 | [7] -0.03 | [3] 0 | [5] 0.146 | [8] 0.007 | [6] 0.033

ODF2 (UniProt Q5BJF6)
inactive: ibrutinib -0.012 | ralimetinib -0.066 | [7] -0.246 | [2] -0.087 | [3] -0.007 | [4] 0.095 | [5] 0.001 | [8] -0.009

PAOX (UniProt Q6QHF9)
inactive: ibrutinib -0.302 | ralimetinib 0.107 | [7] -0.077 | [5] -0.055 | [8] 0.019

PALM isoform 2 (UniProt O75781)
inactive: [2] -0.104

P4HA1 isoform 2 (UniProt P13674)
inactive: ibrutinib 0.013 | ralimetinib 0.074 | [7] -0.094 | [2] -0.04 | [5] -0.007 | [8] -0.27

OAF (UniProt Q86UD1)
inactive: ralimetinib -0.009 | [7] 0.04 | [2] 0.034 | [4] 0.244 | [8] 0.133

NXPE1 (UniProt F5H0Y6)
inactive: ibrutinib 0.453 | [1] -0.072 | [6] 0.105

OGG1 isoform 4 (UniProt O15527)
inactive: [2] -0.197 | [4] -0.085

NXF2 (UniProt Q9GZY0)
inactive: [2] -0.071 | [4] -0.034

NUP214, A0A494C1F2
inactive: ralimetinib -0.139 | [7] -0.051 | [2] -0.032 | [8] -0.068

OFD1 (UniProt O75665)
inactive: ibrutinib 0.152 | ralimetinib -0.085 | [7] 0.136 | [3] -0.2 | [4] 0.079 | [8] 0.049

PAPSS2 isoform 2 (UniProt O95340)
inactive: ibrutinib -0.018 | [1] -0.085 | [6] -0.12

P3H3 (UniProt Q8IVL6)
inactive: [2] 0.21 | [4] 0.093

— the supplement of paper PMC10849652
